In publication PMC5356568:
Results are given in words; binding and its absence hold for the method and conditions named. Some binding calls cover weakened binding; strength is not graded here.

By UniProt entry, the sequences of proteins in these tests, tags left out. Where a name states a change or a piece, a line headed by the entry shows the natural chain unless it says otherwise. Chains listed by the source or under a name are the forms on record and can include a tag or linker. Residues count along the entry.
wsFGFR2c, wild-type soluble ectodomain of FGFR2IIIc (P21802, residues 147-366): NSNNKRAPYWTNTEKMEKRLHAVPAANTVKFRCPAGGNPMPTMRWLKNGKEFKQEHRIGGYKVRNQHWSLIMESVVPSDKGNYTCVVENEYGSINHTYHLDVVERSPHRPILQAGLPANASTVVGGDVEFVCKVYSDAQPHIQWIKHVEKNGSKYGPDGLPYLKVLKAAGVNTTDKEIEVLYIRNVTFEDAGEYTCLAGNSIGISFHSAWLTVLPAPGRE
msFGFR2c, Ser252Trp mutant soluble ectodomain of FGFR2IIIc (P21802-1, form named): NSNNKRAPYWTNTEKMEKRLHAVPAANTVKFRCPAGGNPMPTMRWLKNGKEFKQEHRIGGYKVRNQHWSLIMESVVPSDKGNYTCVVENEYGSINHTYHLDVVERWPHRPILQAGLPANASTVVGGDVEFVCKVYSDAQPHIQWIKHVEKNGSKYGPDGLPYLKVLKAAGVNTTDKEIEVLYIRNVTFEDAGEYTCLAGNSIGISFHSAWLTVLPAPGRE

Target: wsFGFR2c, wild-type soluble ectodomain of FGFR2IIIc (human) (UniProt P21802)
Assay: ITC; Auto-iTC200; 3 ul aliquots of 150 uM msFGFR2c into 200 ul of 20 uM wsFGFR2c, in the absence of FGF-2; 25 mM HEPES, 600 mM NaCl, 5% glycerol, pH 7.5; both purified

Question: With “msFGFR2c, Ser252Trp mutant soluble ectodomain of FGFR2IIIc (from UniProt P21802-1 147-366) (domain or fragment)” as the substance, how does the binding read?
Answer: binds weakly
